The other results are listed elsewhere or left out. Many values rest on one well or one pass, so single values are uncertain.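 Cells were imaged in 1,536-well plates, and nuclei stained with an antibody against cleaved PARP were counted against all DNA-stained nuclei to give the apoptosis fraction. Screening doses were chosen to leave most cells alive, and resting and induced cleaved-PARP levels differ strongly between cell lines.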
System: WM115
Assay: cleaved PARP positive nuclei fraction relative to DMSO control; melanoma cells; higher = more apoptosis
Conditions: library dose: low library concentration; 72 h

Question: For Nc1ncn([C@H]2C[C@H](O)[C@@H](CO)O2)c(=O)n1 [decitabine] + COc1ccc(-c2ccc3c(N4CCOCC4)nc(N4C[C@@H](C)O[C@@H](C)C4)nc3n2)cc1CO [KU0063794] (first compound 0.1 µM, partner dose 0.02 µM), which “cleaved PARP positive nuclei fraction” value is on record?
Answer: 114%

Question: How did the “cleaved PARP positive nuclei fraction” value turn out when CS(=O)(=O)CCNCc1ccc(-c2ccc3ncnc(Nc4ccc(OCc5cccc(F)c5)c(Cl)c4)c3c2)o1 [lapatinib] + O=S(=O)(c1ccccc1)N(CC(F)(F)F)c1ccc(C(O)(C(F)(F)F)C(F)(F)F)cc1 [T0901317] (first compound 0.8 µM, partner dose 1.4 µM) was run?
Answer: 31.4%

Question: With Nc1ccn([C@@H]2O[C@H](CO)[C@@H](O)C2(F)F)c(=O)n1 [gemcitabine] + CC1(C)NC(=O)N(c2ccc([N+](=O)[O-])c(C(F)(F)F)c2)C1=O [nilutamide] (first compound 0.0004 µM, partner dose 1 µM) as the molecule, how does the “cleaved PARP positive nuclei fraction” value read?
Answer: 71.9%

Question: CCCS(=O)(=O)Nc1ccc(F)c(C(=O)c2c[nH]c3ncc(Cl)cc23)c1F + O=C1NC(=O)/C(=C/c2ccc(-c3ccc(F)cc3O)o2)S1 [AS252424] (first compound 0.08 µM, partner dose 1 µM) was tested. Which “cleaved PARP positive nuclei fraction” value did it give?
Answer: 103%

Question: CNC(=O)c1cc(Oc2ccc(NC(=O)Nc3ccc(Cl)c(C(F)(F)F)c3)cc2)ccn1 [sorafenib] + C[C@@H]1CCN(C(=O)CC#N)C[C@@H]1N(C)c1ncnc2[nH]ccc12 [CP690550] (first compound 0.4 µM, partner dose 1 µM) was tested. Which “cleaved PARP positive nuclei fraction” value did it give?
Answer: 33.9%

Question: With Cc1cc(Nc2cc(N3CCN(C)CC3)nc(/C=C/c3ccccc3)n2)n[nH]1 + CN(C)S(=O)(=O)c1ccc2c(c1)/C(=C/c1cc3c([nH]1)CCCC3)C(=O)N2 [SU6656] (first compound 0.04 µM, partner dose 0.4 µM) as the molecule, how does the “cleaved PARP positive nuclei fraction” value read?
Answer: 447%

Question: Which “cleaved PARP positive nuclei fraction” value does the source give for Nc1ncn([C@H]2C[C@H](O)[C@@H](CO)O2)c(=O)n1 [decitabine] + CCCCCCCCCCCC1=C(O)C(=O)C=C(O)C1=O [Embelin] (first compound 0.1 µM, partner dose 1.2 µM) here?
Answer: 143%

Question: Nc1nc(F)nc2c1ncn2[C@@H]1O[C@H](CO)[C@@H](O)[C@@H]1O [fludarabine] + CCCCCCCCCCCC1=C(O)C(=O)C=C(O)C1=O [Embelin] (first compound 0.2 µM, partner dose 1.2 µM) was tested. Which “cleaved PARP positive nuclei fraction” value did it give?
Answer: 61.7%

Question: With O=C(O)c1ccc2c(c1)nc(Nc1cccc(Cl)c1)c1ccncc12 + COc1ccc2c(c1)CCC1C2CCC2(C)C(NCCCCCCN3C(=O)C=CC3=O)CCC12 [U73122] (first compound 0.4 µM, partner dose 0.4 µM) as the molecule, how does the “cleaved PARP positive nuclei fraction” value read?
Answer: 106%

Question: Which “cleaved PARP positive nuclei fraction” value does the source give for Nc1ccn([C@@H]2O[C@H](CO)[C@@H](O)C2(F)F)c(=O)n1 [gemcitabine] + CO[C@@H]1[C@H](N(C)C(=O)c2ccccc2)C[C@H]2O[C@]1(C)n1c3ccccc3c3c4c(c5c6ccccc6n2c5c31)C(=O)NC4 [Midostaurin] (first compound 0.0004 µM, partner dose 0.08 µM) here?
Answer: 101%

Question: How did the “cleaved PARP positive nuclei fraction” value turn out when CN1CCN(c2ccc3nc(-c4c(N)c5c(F)cccc5[nH]c4=O)[nH]c3c2)CC1 [Dovitinib] + O=C(O)C(=O)Nc1sc2c(c1C(=O)O)CCNC2 [TCS401] (first compound 0.1 µM, partner dose 1.66667 µM) was run?
Answer: 80.3%

Question: Nc1ncn([C@H]2C[C@H](O)[C@@H](CO)O2)c(=O)n1 [decitabine] + COC(=O)c1sccc1S(=O)(=O)Nc1ccc(Nc2ccccc2)cc1OC [GSK0660] (first compound 0.1 µM, partner dose 1 µM) was tested. Which “cleaved PARP positive nuclei fraction” value did it give?
Answer: 210%

Question: Cc1cc(Nc2cc(N3CCN(C)CC3)nc(/C=C/c3ccccc3)n2)n[nH]1 + Cc1cc(N2CCOCC2)cc2[nH]c(-c3c(NC[C@@H](O)c4cccc(Cl)c4)cc[nH]c3=O)nc12 [BMS536924] (first compound 0.04 µM, partner dose 0.2 µM) was tested. Which “cleaved PARP positive nuclei fraction” value did it give?
Answer: 164%

Question: With Cn1c(=O)n(-c2ccc(C(C)(C)C#N)cc2)c2c3cc(-c4cnc5ccccc5c4)ccc3ncc21 + NC(=O)Nc1cc(-c2cccc(F)c2)sc1C(=O)N[C@H]1CCCNC1 [AZD7762] (first compound 0.004 µM, partner dose 0.02 µM) as the molecule, how does the “cleaved PARP positive nuclei fraction” value read?
Answer: 153%

Reference: the supplement of paper PMC4604168 (melanoma cell lines)
